The list shows a part of the results.
Target: OsWRKY34 (Oryza sativa, UniProt Q0JBA9 1-250)
Experiment: protein-binding microarray (RPBM); PBS, 2% BSA, 51.3 ng/ul salmon testes DNA, 50 uM zinc acetate, 200 nM TF, 25 C, 1 h; high values mean tight binding
Conditions: protein: recombinant; tags: N-terminal polyhistidine and DsRed monomer fusion (pET32a); label: CyDye5-dUTP incorporated in the synthesized complementary strand; 3' TTTTT single-stranded linker to array surface; dsDNA, one strand shown
Method in brief: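 A custom Agilent array was converted to double-stranded form by primer extension with Cy5-dUTP and blocked with 2% BSA. Protein at 200 nM in PBS with 2% BSA, salmon testes DNA and 50 µM zinc acetate was applied for 1 h at 25 °C, followed by washing. The proteins were polyhistidine–DsRed N-terminal fusions of transcription factors, expressed in E. coli BL21-CodonPlus and Ni–NTA-purified. The binding signal is per-feature fluorescence intensity (arbitrary units) from an Axon 4000B scanner.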

Protein sequences, listed by entry. Tags and fused reporters are not part of them.
UniProt Q0JBA9, entry or part of it: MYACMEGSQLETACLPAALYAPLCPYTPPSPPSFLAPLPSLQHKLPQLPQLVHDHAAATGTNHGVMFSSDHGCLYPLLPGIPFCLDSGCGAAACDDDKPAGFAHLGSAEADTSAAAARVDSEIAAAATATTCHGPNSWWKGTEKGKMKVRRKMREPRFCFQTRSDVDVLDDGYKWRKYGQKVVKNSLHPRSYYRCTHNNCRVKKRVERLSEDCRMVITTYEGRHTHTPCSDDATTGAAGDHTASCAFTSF

Point of comparison: “TCCATGCAGTCTTCTTCTTCTGCAGCCTATGCTGTTAGTCCGGAGTCACCTAGTGCAG”, binding signal 11700 fluorescence intensity (a.u.). Against it:
- AAGTTTCATCTAAAATTTTGTACTGTTGCCTTAGTCATATCGGAGTCACCTAGTGCAG — higher, 13000 fluorescence intensity (a.u.)
- CCCTATGTTTTTGTGTGGCCTAGATGGAGTTTTATAAAAACGGAGTCACCTAGTGCAG — lower, 10000 fluorescence intensity (a.u.)
- ACTATAGGGCTGTGTTTGCATCCCCATGTTCCCAACACTTCGGAGTCACCTAGTGCAG — lower, 10200 fluorescence intensity (a.u.)
- CTTGTTGCTGTCTTGCATGTAAGCCGTATTTTCTCCCCATCGGAGTCACCTAGTGCAG — lower, 9170 fluorescence intensity (a.u.)
- GATTATTTACCTTTCACATAATATCGAGTATTTCTCAGTTCGGAGTCACCTAGTGCAG — lower, 9960 fluorescence intensity (a.u.)
- GCCACGGCCCATTAACGCATGCGACCTTAACCGCGCTGCACGGAGTCACCTAGTGCAG — lower, 8650 fluorescence intensity (a.u.)
- TTAAGGAGGGATTGGGAGTTTAGAGGGATGGGCTATTAAGCGGAGTCACCTAGTGCAG — lower, 8490 fluorescence intensity (a.u.)
- TATGGGTCCCACGGGGTTATTATTTTCTGGATTCAATTGCCGGAGTCACCTAGTGCAG — lower, 8360 fluorescence intensity (a.u.)
- GCAGGCAACCAATATGAACTTTGACCCATAATAGCTGCATCGGAGTCACCTAGTGCAG — lower, 8350 fluorescence intensity (a.u.)
- ATCCATTGTTCAGACCTGCCTTATTACTAGCTGTAGAGATCGGAGTCACCTAGTGCAG — lower, 8670 fluorescence intensity (a.u.)
- CCGTCCTCTCCCCGGCGCCCGTGAACCGGAGAGAAGAGAACGGAGTCACCTAGTGCAG — higher, 13100 fluorescence intensity (a.u.)
- CTCGCTGCCCACCCTGCCTCCTCTGGTGTCGCCGCTCGACCGGAGTCACCTAGTGCAG — lower, 8660 fluorescence intensity (a.u.)
- TTTGTTTGTTATACTGTAGGGATGTGACTGCTTGGGTCTTCGGAGTCACCTAGTGCAG — lower, 9020 fluorescence intensity (a.u.)
- ACTTAATGGTATGGGTGAGCTCTCTTGAATGCATGCACACCGGAGTCACCTAGTGCAG — lower, 8380 fluorescence intensity (a.u.)
- CTAAAACCTTGTTTCGACACTTTCTTATGTGCCACTATTTCGGAGTCACCTAGTGCAG — lower, 9340 fluorescence intensity (a.u.)
- TTTTTTCGTTGACCGTGTGACCGCTTCGTATCCTGCGCGGCGGAGTCACCTAGTGCAG — higher, 14700 fluorescence intensity (a.u.)
- CCGATACTTGTAATACTTTTATTTCTTCTCGGTAATTAACCGGAGTCACCTAGTGCAG — lower, 8950 fluorescence intensity (a.u.)
- TGCCGTCCGTCCCAACTTCGTCTGGGCCTCTCGCCAACCACGGAGTCACCTAGTGCAG — lower, 10600 fluorescence intensity (a.u.)
- CATACTATTTATAAGATTTTATTGAATTGTTTCCTTGTTTCGGAGTCACCTAGTGCAG — lower, 9310 fluorescence intensity (a.u.)
- GAAGAGTGGGGAAGGATTTTTTTTTTTACATGTGGGTGCCCGGAGTCACCTAGTGCAG — lower, 8960 fluorescence intensity (a.u.)
- ACTTTCTCTGTTTTTCATGTATTTCTCGTTTCTTAATTCCCGGAGTCACCTAGTGCAG — lower, 11300 fluorescence intensity (a.u.)
- TTTGGTCACTGCATTGACCGGTCAGCATCAACGACTCCTTCGGAGTCACCTAGTGCAG — lower, 9690 fluorescence intensity (a.u.)
- TGAGGTGGTGGTTCGGGCTCTCGCGGCGGCGTCTTCCATGCGGAGTCACCTAGTGCAG — lower, 9240 fluorescence intensity (a.u.)
- CTAAAAGGATAGGTTGGTGTGGTGGGTTGGGCCGTGATTTCGGAGTCACCTAGTGCAG — higher, 14400 fluorescence intensity (a.u.)
- ATCGCCGGCTTCACCCTCGCCGCTCAATCCCAGCCGTCGGCGGAGTCACCTAGTGCAG — lower, 8860 fluorescence intensity (a.u.)
- ATGCCTTTTTTTACCTTAGTTTCAATGAATATCATAAACACGGAGTCACCTAGTGCAG — lower, 8680 fluorescence intensity (a.u.)
- GTCTTTATCCCCAACTGCATATCATCAAACTTTCCTAATACGGAGTCACCTAGTGCAG — lower, 8040 fluorescence intensity (a.u.)
- TGATTTCAAATGTCCTTTTGTGTTGGTGCCTGTTTTATCTCGGAGTCACCTAGTGCAG — lower, 9650 fluorescence intensity (a.u.)
- GGTAGCAGTTTCTTCAAGTACCTGAACTCTCATTTTGGGGCGGAGTCACCTAGTGCAG — lower, 10400 fluorescence intensity (a.u.)
- TCGACACCGCCATTTGGTTAGCATCATCGGTCACTGCATTCGGAGTCACCTAGTGCAG — lower, 9130 fluorescence intensity (a.u.)
- GTATGCCATCTTGTATCCAACTTCGTCACCCGGTATCCTTCGGAGTCACCTAGTGCAG — lower, 11200 fluorescence intensity (a.u.)
- ATATCGTGATTATTACTCACCACACGTTGTACACAATGATCGGAGTCACCTAGTGCAG — lower, 8200 fluorescence intensity (a.u.)
- CTGCCTGCCTATTCATTCATTTTTGTAACTGATCGTTATTCGGAGTCACCTAGTGCAG — lower, 11400 fluorescence intensity (a.u.)
- GTTGTCATCACCCGGCCTGTAGTGTGCGCTCTGATCCTAGCGGAGTCACCTAGTGCAG — lower, 8770 fluorescence intensity (a.u.)
- CCTCATTTCTTTCATTCGCGTTGACTACTAATTTGCAGATCGGAGTCACCTAGTGCAG — lower, 10200 fluorescence intensity (a.u.)
- AGTGTGGTTGGGGATGAGGAAGAATGAGATAAGGTTGGGGCGGAGTCACCTAGTGCAG — lower, 8730 fluorescence intensity (a.u.)
- TGTTGTTTTTTTTTGGGTAATCTCTCCAGTTGCAGACTTGCGGAGTCACCTAGTGCAG — lower, 8120 fluorescence intensity (a.u.)
- ACCTGAGCTTCCGCTCCCTCGCCGGCGACGCCGCGGCGTCCGGAGTCACCTAGTGCAG — lower, 8870 fluorescence intensity (a.u.)
- GTTTTCCTGTAGTCTTCTCTGTAGCCTGTAGACTTTTTACCGGAGTCACCTAGTGCAG — higher, 12700 fluorescence intensity (a.u.)
- AGCAAGCTCTACCGCCACTGCCGCGCGGCTGTTCTTGCTTCGGAGTCACCTAGTGCAG — lower, 10400 fluorescence intensity (a.u.)
- TCGCTGCTTCACCGATGGAACTATTTCTTTTGTCCTTCATCGGAGTCACCTAGTGCAG — lower, 11400 fluorescence intensity (a.u.)

Reference: PMC7819943, “Rice protein-binding microarrays: a tool to detect cis-acting elements near promoter regions in rice”
